For five molecules, binding results are on record in patent US20250304662A1.

In the test the target is FimH tipping type 1 pili on E. coli UT189 bacteria (E. coli (UT189)). Description: bacterial cell ELISA on UT189.

Where a chain is given by its changes, count along the chain named. No constants are given. Whether binding was seen depends on the method and setting. A result given as binding can be weak or reduced; the word gives no strength.

B1: 2G04 (antibody, V domains shown)
VH: EVQLQQPGPELVKPGSSLKISCKASGYTFTDYFINWVKQRPGQGLDWIGWIFPGSGSTYYNDKFKGKATLTVDKSSSTAYMLLSSLTSEASAVYFCARWDSDSTYWYFDVWGTGTTVTVSS
VL: QIVLTQSPALMAASPGEKVTITCSVNSSISSSTLHWYQQKSQTSPKPWIYGTSNLASGVPIRFSGSGSGTSYSLTISSMEAEDAATYYCQQWSTYPYTFGGGTKLEIKR
As for B1, the binding result is “binds”.

B2: Kp1 2E08 (antibody, V domains shown)
VH: EVQLQQPGAELAKPGASVKLSCKASGYNFTSYWMHWVKQRPGQGLEWIGLIHPNSGGTYYNEKFKSKATLTLDRSSSTAYMQLSSLTSEDSAVYYCARFEEEWGGYWYFDVWGTGTTVTVSS
VL: B1 VL with N26S, T33N, Q42E, I61V, T94S
For B2, the binding entry is “binds”.

B3: Kp1 1A02 (antibody, V domains shown)
VH: EVQLQQSGPVLVKPGPSMKISCKASGFTFTDYYIHWVRQSHGKSLEWIGLVSPYNGGTYYNQKFKGKATLTVDSSSSTAYMELSSLTSEDSAVYYCARLGYYGDWYYFDYWGQGTPLTVSS
VL: B1 VL with A13T, N26S, T33N, H35N, Q42E, I61V, T94S
For the molecule B3, the binding result is recorded as “binds”.

B4: Ec1 F7 (antibody, V domains shown)
VH: EVQLQQPGPVLVKPGPSVKISCKASGFTFTDYFIHWVKQSHGKSLEWIGLVSPYNGGTYYNQQFKGKATLTVDTSSSTAYMDLNSLTSEDSAVYYCTRLLRGYWYFDVWGTGTTVTVSS
VL: B1 VL with N26S, S30G, T33N, Q42E, I61V
Turning to B4, the binding entry is “binds”.

B5: Kp2 2C07 (antibody, V domains shown)
VH: EVKLVESGEGLVKPGGSLKLSCAASGFTFSSYAMSWVRQTPEKRLDWVAYISSGGDHIYYADTVKGRFTISRDNARNTLYLQMSSLKSEDTAMYYCTRDTGYYVSRYFDVWGTGTTVTVSS
VL: DIVMTQSQKFMSTSVGDRVSVTCKASQNVVTNVAWYQQKSGQSPKVVIYSASFRSSGVPDRFTGSGSGTDFTLTISNVQSEDLAEYFCHQYNSHPLTFGGGTKLEIKR
As for B5, the binding result is on record as “binds”.
